Test results taken from article PMC6829553.
These are yes or no findings as the source states them, for the method shown. Sequences can lack the tags named with a protein.

Biological target: T1, AcMYB10C (112-222aa) fused to the BD (Actinidia chinensis cv. Hongyang)
T1 sequence: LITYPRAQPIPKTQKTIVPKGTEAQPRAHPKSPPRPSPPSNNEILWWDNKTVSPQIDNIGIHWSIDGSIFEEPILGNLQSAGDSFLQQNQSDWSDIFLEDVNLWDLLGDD
Assay: two-hybrid; yeast strain AH109; BD fusions in pGBKT7, AD fusions in pGADT7; selected on SD/-Leu/-Trp, then growth on SD/-Ade/-His/-Leu/-Trp with 15 mM 3AT; X-alpha-gal to confirm

## AcBHLH42-AD (full-length AcbHLH42 in pGADT7) (Actinidia chinensis cv. Hongyang)
  binding: no binding
